In publication PMC4168999:
Results are given in words; binding and its absence hold for the method and conditions named. Binding seen in cells or lysates may run through a third protein.

Target: T1, HEATR2 (human (endogenous in normal human bronchial epithelial cells)) (UniProt Q86Y56)
T1 sequence: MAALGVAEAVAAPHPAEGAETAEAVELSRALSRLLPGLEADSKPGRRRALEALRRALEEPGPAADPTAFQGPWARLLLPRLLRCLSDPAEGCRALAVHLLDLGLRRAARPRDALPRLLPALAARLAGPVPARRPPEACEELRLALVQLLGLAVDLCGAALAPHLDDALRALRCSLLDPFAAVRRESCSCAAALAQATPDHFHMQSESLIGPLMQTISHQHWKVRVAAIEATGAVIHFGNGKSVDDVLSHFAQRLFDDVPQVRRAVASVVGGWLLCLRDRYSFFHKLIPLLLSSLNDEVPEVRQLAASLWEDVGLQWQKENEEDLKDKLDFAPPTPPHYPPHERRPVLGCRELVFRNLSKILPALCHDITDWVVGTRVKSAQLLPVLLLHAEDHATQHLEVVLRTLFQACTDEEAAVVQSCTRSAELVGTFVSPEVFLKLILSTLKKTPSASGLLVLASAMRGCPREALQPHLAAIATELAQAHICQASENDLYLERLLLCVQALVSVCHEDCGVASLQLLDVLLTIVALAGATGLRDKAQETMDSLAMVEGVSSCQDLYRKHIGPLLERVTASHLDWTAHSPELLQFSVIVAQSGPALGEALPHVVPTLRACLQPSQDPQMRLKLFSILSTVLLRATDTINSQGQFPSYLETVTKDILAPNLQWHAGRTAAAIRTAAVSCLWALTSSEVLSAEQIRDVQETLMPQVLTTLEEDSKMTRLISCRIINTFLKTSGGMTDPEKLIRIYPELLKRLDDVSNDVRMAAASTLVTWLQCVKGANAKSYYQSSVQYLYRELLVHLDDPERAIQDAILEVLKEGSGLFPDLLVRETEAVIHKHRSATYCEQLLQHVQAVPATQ
Assay: co-IP; endogenous HEATR2 precipitated with anti-HEATR2 (Proteintech) from whole cell lysates of terminally differentiated normal human bronchial epithelial cells (40 days post-ALI); control rabbit IgG (GFP); lysis buffer 50 mM Tris-HCl pH 7.5, 100 mM NaCl, 10% glycerol, 0.5 mM EDTA, 0.5% IGEPAL, 0.15% Triton-X 100; overnight at 4°C; Dynabeads G; immunoblot

In the case of HSP70, the binding is reported as “no binding”.
